# Source: the supplement of paper PMC8728848
# The other results are listed elsewhere or left out.
# Columns and labels:
# Assay in all cases: glycan array binding signal (z-score within array); higher = stronger binding
# Details in all cases: glycan notation: IUPAC condensed, linker removed
# [1] = molecular target: Gal3S4S(b1-4)GlcNAc
# Outline: (§1)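 The binding signal is a Z-score computed within each array. Data were drawn from 3228 arrays in the Consortium for Functional Glycomics database, restricted to those with a known protein sequence. Scores were averaged over arrays of the same protein sequence at different concentrations or buffers, and over linkers, and negative values can be taken as non-binding.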
# [2] = molecular target: Gal3S6S(b1-4)GlcNAc
# Outline: as §1
# [3] = molecular target: Gal3S6S(b1-4)GlcNAc6S
# Outline: as §1
# [4] = molecular target: Gal4S(b1-4)GlcNAc
# Outline: as §1
# [5] = molecular target: Gal4S6S(b1-4)GlcNAc
# Outline: as §1
# [6] = molecular target: Gal6P(b1-4)GlcNAc
# Outline: as §1
# [7] = molecular target: Gal6S(b1-3)GlcNAc
# Outline: as §1
# [8] = molecular target: Gal6S(b1-3)GlcNAc6S
# Outline: as §1
# [9] = molecular target: Gal6S(b1-4)Glc
# Outline: as §1
# [10] = molecular target: Gal6S(b1-4)Glc6S
# Outline: as §1
# [11] = molecular target: Gal6S(b1-4)GlcNAc
# Outline: as §1
# [12] = molecular target: Gal6S(b1-4)GlcNAc6S
# Outline: as §1
# [13] = molecular target: GalNAc(a1-3)Gal
# Outline: as §1
# [14] = molecular target: GalNAc(a1-3)GalNAc
# Outline: as §1
# [15] = molecular target: GalNAc(a1-3)GalNAc(a1-3)Gal(a1-4)Gal(b1-4)GlcNAc
# Outline: as §1
# [16] = molecular target: GalNAc(a1-3)GalNAc(b1-3)Gal(a1-4)Gal(b1-4)Glc
# Outline: as §1
# [17] = molecular target: GalNAc(b1-3)Gal
# Outline: as §1
# [18] = molecular target: GalNAc(b1-3)Gal(a1-4)Gal(b1-4)GlcNAc
# Outline: as §1
# [19] = molecular target: GalNAc(b1-3)Gal(a1-4)Gal(b1-4)GlcNAc(b1-3)Gal(b1-4)Glc
# Outline: as §1
# [20] = molecular target: GalNAc(b1-3)Gal(a1-6)Gal(b1-4)Glc
# Outline: as §1
# [21] = molecular target: GalNAc(b1-3)GalNAc
# Outline: as §1
# [22] = molecular target: GalNAc(b1-3)GlcNAc
# Outline: as §1
# [23] = molecular target: GalNAc(b1-4)Gal(b1-4)Glc
# Outline: as §1
# [24] = molecular target: GalNAc(b1-4)GlcNAc
# Outline: as §1
# [25] = molecular target: GalNAc(b1-4)GlcNAc(b1-2)Man
# Outline: as §1
# [26] = molecular target: GalNAc(b1-4)GlcNAc(b1-2)Man(a1-3)[GalNAc(b1-4)GlcNAc(b1-2)Man(a1-6)]Man(b1-4)GlcNAc(b1-4)GlcNAc
# Outline: as §1
# [27] = molecular target: GalNAc(b1-4)GlcNAc(b1-3)GalNAc(b1-4)GlcNAc
# Outline: as §1
# [28] = molecular target: GalNAc(b1-4)GlcNAc6S
# Outline: as §1
# [29] = molecular target: GalNAc(b1-6)GalNAc
# Outline: as §1
# [30] = molecular target: GalNAc3S(b1-4)GlcNAc
# Outline: as §1
# [31] = molecular target: GalNAc3S(b1-4)GlcNAc3S
# Outline: as §1
# [32] = molecular target: GalNAc3S(b1-4)[Fuc(a1-3)]GlcNAc
# Outline: as §1
# [33] = molecular target: GalNAc4S6S(b1-4)GlcNAc
# Outline: as §1
# [34] = molecular target: GalNAc6S(b1-4)GlcNAc
# Outline: as §1
# [35] = molecular target: Glc(a1-4)Glc
# Outline: as §1
# [36] = molecular target: Glc(a1-4)Glc(a1-4)Glc(a1-4)Glc
# Outline: as §1
# [37] = molecular target: Glc(a1-6)Glc(a1-6)Glc
# Outline: as §1
# [38] = molecular target: Glc(a1-6)Glc(a1-6)Glc(a1-6)Glc
# Outline: as §1
binder,measurement,setting,value
"RbmA (Vibrio cholerae), A0A2H4NFB8 (protein) MSNFKGSIMNKRHYYLASCLALLFSTASYAEVDCELQPVIEANLSLNQNQLASNGGYISSQLGIRNESCETVKFKYWLSIKGPEGIYFPAKAVVGVDTAQQESDALTDGRMLNVTRGFWVPEYMADGKYTVSLQVVAENGEVFKANQEFVKGGDLNSLPELNGLTIDIKNQFGINSVESTGGFVPFTIDLNNGREGEAKVEFWMTAVGPDGLIIPVHSREKWMIIAGNTFSKVRGINFDKSYPAGEYTINAQVVDIVSGERVEQLMTVVKK",glycan array binding signal (z-score),[1],-0.008
same,glycan array binding signal (z-score),[2],0.559
same,glycan array binding signal (z-score),[3],0.952
same,glycan array binding signal (z-score),[4],3.32
same,glycan array binding signal (z-score),[5],-0.354
same,glycan array binding signal (z-score),[6],0.524
same,glycan array binding signal (z-score),[7],-1
same,glycan array binding signal (z-score),[8],-0.99
same,glycan array binding signal (z-score),[9],-0.634
same,glycan array binding signal (z-score),[10],-0.918
same,glycan array binding signal (z-score),[11],-0.43
same,glycan array binding signal (z-score),[12],-0.665
same,glycan array binding signal (z-score),[13],-0.479
same,glycan array binding signal (z-score),[14],-0.631
same,glycan array binding signal (z-score),[15],-0.962
same,glycan array binding signal (z-score),[16],-1.12
same,glycan array binding signal (z-score),[17],0.022
same,glycan array binding signal (z-score),[18],-0.439
same,glycan array binding signal (z-score),[19],-0.073
same,glycan array binding signal (z-score),[20],-0.263
same,glycan array binding signal (z-score),[21],-0.118
same,glycan array binding signal (z-score),[22],0.094
same,glycan array binding signal (z-score),[23],0.304
same,glycan array binding signal (z-score),[24],-0.148
same,glycan array binding signal (z-score),[25],-0.181
same,glycan array binding signal (z-score),[26],-0.923
same,glycan array binding signal (z-score),[27],2.09
same,glycan array binding signal (z-score),[28],-0.217
same,glycan array binding signal (z-score),[29],0.616
same,glycan array binding signal (z-score),[30],-0.902
same,glycan array binding signal (z-score),[31],-0.675
same,glycan array binding signal (z-score),[32],0.981
same,glycan array binding signal (z-score),[33],-0.474
same,glycan array binding signal (z-score),[34],-0.009
same,glycan array binding signal (z-score),[35],-0.733
same,glycan array binding signal (z-score),[36],0.33
same,glycan array binding signal (z-score),[37],-0.562
same,glycan array binding signal (z-score),[38],1.03

# Two entries from above, with bars between the fields.
binder | measurement | setting | value
RbmA (Vibrio cholerae), A0A2H4NFB8 (protein) MSNFKGSIMNKRHYYLASCLALLFSTASYAEVDCELQPVIEANLSLNQNQLASNGGYISSQLGIRNESCETVKFKYWLSIKGPEGIYFPAKAVVGVDTAQQESDALTDGRMLNVTRGFWVPEYMADGKYTVSLQVVAENGEVFKANQEFVKGGDLNSLPELNGLTIDIKNQFGINSVESTGGFVPFTIDLNNGREGEAKVEFWMTAVGPDGLIIPVHSREKWMIIAGNTFSKVRGINFDKSYPAGEYTINAQVVDIVSGERVEQLMTVVKK | glycan array binding signal (z-score) | [23] | 0.304
same | glycan array binding signal (z-score) | [24] | -0.148
